Laboratory results reported in patent US12128173B2, “Dry powder drug delivery system and methods” (MannKind Corporation, priority 2012, dated 2024).

Assay: O-series vs U-series inhaler: discharge and particle size of crystalline and amorphous powders (Example 14)
Type: physicochemical
Conditions: fill 25 mg, 4 kPa
Description: These experiments were conducted to test various inhaler designs in trying to improve percent dose discharge or increase device emptying to acceptable ranges for certain types of powders used. […] In these experiments, therefore, two types of dry powder inhalers were designed and built. An O-series (FIGS. 49 and 50) dry powder inhaler wherein the inhaler comprises rigid conduits which generate a tumbling, recirculating action of an airflow through the powder container during an inhalation in an O-shape prior to the airflow exiting the container. […]
The rigid flow conduits as illustrated in FIGS. 49 and 51 can be adapted to any type of dry powder inhaler for delivering different types of powder compositions. […] Inhaler performance was tested and evaluated from measurements using various parameters, such as pressure differential, powder content prior to and after testing of various powders via a simulated single inhalation. The particle size distribution of the discharged powder plume for each inhaler used was also measured as described in Example 7 above.

## O=C(O)/C=C/C(=O)NCCCCC1NC(=O)C(CCCCNC(=O)/C=C/C(=O)O)NC1=O (centres unmarked) [FDKP, 3,6-bis(N-fumaryl-4-aminobutyl)-2,5-diketopiperazine]
Sample 1, O-series
  % CE: 93.02%
Sample 2, U-series
  % CE: 93.90%
